Laboratory results as given in PubChem BioAssay AID445 (National Center for Advancing Translational Sciences (NCATS), 2006).
Some of the results follow. Shown are side measurements of this screen, not its main read-out; they come without a call. The list favours compounds with an active or inconclusive main result. The note in brackets gives the kind of curve behind each potency; many fits are weak.

assay: IkB Signaling; conditions: ABC-DLBCL IkBa-CBG/CBR dual luciferase ratio (green luciferase fused to IkBa over red control in OCI-Ly3 lymphoma cells), 4 h; measured here: control luc red channel unless noted
Procedure, shortened: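 Luminescence ratio of IκBα-fused green versus native red beetle luciferase in OCI-Ly3 cells, 4 h post-doxycycline with compound; red signal alone, scaled from basal (0%) to zero light (-100%), flagged nonspecific or cytotoxic effects.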

Row | Structure (SMILES) | AC50
1 | CCc1ccc(S(=O)(=O)Nc2ccc3c(c2)sc(=O)n3C)cc1 | 3.16 µM [falling, single point]
2 | Cc1cccc(Cn2c(=O)n(-c3cc(C)cc(C)c3)c(=O)c3oc4ccccc4c32)c1 | 12.6 µM [falling, partial curve]
3 | O=c1c2ccccc2nc(SCc2ccccc2)n1Cc1ccco1 | 15.8 µM [falling, partial curve]
4 | COc1ccc(N(C)C(=O)Cn2cnc3sc(C)c(S(=O)(=O)N4CCN(c5ncccn5)CC4)c3c2=O)cc1 | 2.51 µM [rising, partial curve, poor fit]
5 | CCC(=O)N1CCCc2cc(S(=O)(=O)N3CCCc4ccccc43)ccc21 | 10 µM [falling, partial curve]
6 | Cc1cccc(NC(=O)CSc2nc(-c3cccs3)nc3cc(=O)[nH]n23)c1 | 25.1 µM [falling, single point]
7 | CCN(C(=O)c1ccco1)c1nc(CC(=O)Nc2ccc(Cl)cc2)cs1 | 31.6 µM [falling, single point]
8 | COc1ccc(-c2c3c(nc4sc(C(=O)Nc5cccc(OC)c5)c(N)c24)CC(C)(C)CC3=O)cc1 | 7.94 µM [falling, partial curve]
9 | COc1ccc(OC)c(S(=O)(=O)N2CCC(C(=O)Nc3ccc(C)c(C)c3)CC2)c1 | 25.1 µM [falling, partial curve]
10 | Cc1cc(C(=O)N2CCN(c3ccccc3F)CC2)c2c(C)nn(-c3ccccc3)c2n1 | 20 µM [falling, partial curve]
11 | CCOC(=O)CCc1c(C)c2ccc(OCC(=O)N(CC)CC)c(C)c2oc1=O | 12.6 µM [falling, partial curve]
12 | CCCCN(C)C(=O)CSc1c2c(nc3ccc(Cl)cc13)CCCC2 | 15.8 µM [falling, partial curve]
13 | Cn1c(=O)c(=O)n(C)c2cc(NS(=O)(=O)c3ccc(Br)cc3)c(Cl)cc21 | 31.6 µM [falling, single point]
14 | c1ccc(Nc2nc3ccccc3[nH]2)nc1 | 20 µM [falling, partial curve]
15 | CCOC(=O)C1=C(CNCc2ccccc2Cl)NC(=O)NC1c1ccc2c(c1)OCO2 (stereo unspecified) | 12.6 µM [falling, partial curve]
16 | CCCCNC(=O)CSc1nc2cc3c(cc2c(=O)n1Cc1ccc(C(=O)NCCc2ccc(OC)c(OC)c2)cc1)OCO3 | 39.8 µM [rising, single point] [measured here: IkB-luc green channel]
17 | CCOC(=O)c1sc(NC(=O)CSc2nnc(-c3ccco3)n2CC)c(C(=O)OCC)c1C | 6.31 µM [falling, partial curve]
18 | O=C(CCC(=O)N1Cc2ccccc2Oc2ncccc21)NCc1cccc(Cl)c1 | 2.51 µM [falling, partial curve]
19 | CC(Oc1ccccc1)C(=O)Nc1ccc(C(=O)OCc2cc(=O)n3nc(C4CC4)sc3n2)cc1 (stereo unspecified) | 25.1 µM [falling, partial curve]
20 | COc1ccc(-c2cn3c(n2)sc2cc(C(=O)Nc4ccc(C)c(Cl)c4)ccc23)cc1 | 12.6 µM [falling, partial curve]
21 | CCOC(=O)c1[nH]c2c(c1Cc1ccccc1C)C(=O)CC(c1ccccc1)C2 (stereo unspecified) | 5.01 µM [falling, partial curve]

Row | Structure (SMILES) | AC50
22 | CCc1ccc(NC(=O)c2cnn(-c3c(C)cccc3C)c2C2CCN(C(=O)OC(C)(C)C)CC2)cc1 | 7.94 µM [falling, partial curve]
23 | O=C(NCCc1ccccc1)C(=O)NCC(c1cccs1)S(=O)(=O)c1cccs1 (stereo unspecified) | 20 µM [rising, partial curve, poor fit]
24 | CC1(C)N=C(SCc2ccc(Cl)cc2)c2ccccc2N1 | 0.00631 µM [falling, full curve, poor fit]
25 | Cc1cc(=O)[nH]c2nnc(SCc3ccccc3F)n12 | 3.16 µM [rising, partial curve]
26 | Cc1ccc(S(=O)(=O)N2CCN(Cc3cc(=O)n4nc(-c5ccccc5Cl)sc4n3)CC2)cc1 | 39.8 µM [falling, single point]
27 | COc1ccccc1CNC(=O)c1cnc2sc(N3CCCCC3)nn2c1=O | 7.94 µM [rising, partial curve]
28 | CCOC(=O)N1CCN(C(=O)CSCC(=O)Nc2nc(-c3ccc(OC)cc3)cs2)CC1 | 12.6 µM [falling, partial curve]
29 | COc1cccc(C2C(C(=O)Nc3ccccc3OC)=C(C)Nc3nc(-c4ccco4)nn32)c1 (stereo unspecified) | 31.6 µM [falling, single point]
30 | Cc1ccc(NC(=O)C2CCN(S(=O)(=O)c3cccc4nonc34)CC2)nc1 | 20 µM [falling, partial curve]
31 | CCC(Sc1nnc2c3ccccc3n(CC)c2n1)C(=O)Nc1ccc(NC(C)=O)cc1 (stereo unspecified) | 31.6 µM [falling, single point]
32 | COc1ccc(-c2noc(CSc3nc4ccc(C)cc4[nH]3)n2)cc1 | 15.8 µM [falling, partial curve]
33 | O=C(Cn1nc(Cc2cccnc2)c2ccccc2c1=O)Nc1ccc(F)c(Cl)c1 | 39.8 µM [falling, single point]
34 | COc1cccc(CNC(=O)c2sc3ncccc3c2-n2c(C)ccc2C)c1OC | 12.6 µM [falling, partial curve]
35 | COc1ccc(C(=O)NCC(c2ccc(Cl)cc2)N2CCCCC2)cc1 (stereo unspecified) | 31.6 µM [falling, single point]
36 | CCC(C(=O)Nc1cc(C(F)(F)F)ccc1Cl)n1nc(C)c2sc3ccccc3c2c1=O (stereo unspecified) | 15.8 µM [falling, partial curve]
37 | COc1ccccc1CNC(=O)Cn1nc(C)n2cccc2c1=O | 7.94 µM [falling, full curve]
38 | O=C(Cn1cnc2onc(-c3ccc(F)cc3)c2c1=O)N1CCN(c2ccc(F)cc2)CC1 | 31.6 µM [falling, single point]
39 | Cc1ccc(Cc2c(C)nc3nc(SCC(=O)NCCC(C)C)nn3c2C)cc1 | 15.8 µM [falling, partial curve]
40 | Cc1ccc(CN2C(=O)SC(Nc3ccc(Cl)cc3)C2=O)cc1 (stereo unspecified) | 15.8 µM [falling, partial curve]
41 | CC1CCN(c2nc3ccc(C(=O)NC(C)C)cc3s2)CC1 | 3.16 µM [falling, partial curve]
42 | Cn1c(=O)[nH]c(=O)c2c1nc(Br)n2CCCSc1nc2ccccc2o1 | 20 µM [falling, single point]

Sorted by molar mass (smallest number first): part of the list above.
Row | Structure (SMILES) | AC50
27 | COc1ccccc1CNC(=O)c1cnc2sc(N3CCCCC3)nn2c1=O | 7.94 µM [rising, partial curve]
31 | CCC(Sc1nnc2c3ccccc3n(CC)c2n1)C(=O)Nc1ccc(NC(C)=O)cc1 (stereo unspecified) | 31.6 µM [falling, single point]
36 | CCC(C(=O)Nc1cc(C(F)(F)F)ccc1Cl)n1nc(C)c2sc3ccccc3c2c1=O (stereo unspecified) | 15.8 µM [falling, partial curve]

More compounds follow:

Row | Structure (SMILES) | AC50
43 | O=C(Nc1onc2c1CCCC2)c1ccccc1 | 6.31 µM [rising, partial curve, poor fit]
44 | CC1CCN(C(=O)c2ccc3c(c2)N(Cc2ccccc2F)C(=O)c2ccccc2S3(=O)=O)CC1 | 25.1 µM [falling, single point]
45 | Cc1c(Cl)cccc1-n1ncc(C(=O)N2CCN(C)CC2)c1C1CCN(C(=O)OC(C)(C)C)CC1 | 25.1 µM [falling, single point]
46 | COc1ccc(S(=O)(=O)n2nc(C)c(S(=O)(=O)N3CCCCC3)c2C)cc1 | 0.0251 µM [falling, full curve, poor fit]
47 | COc1ccccc1N1CCN(C(=O)c2cc3c(=O)n(C)c4ccccc4c3s2)CC1 | 39.8 µM [falling, single point]
48 | COc1ccc(-c2nc(SCC(=O)NC3CCCC3)c(-c3ccc(OC)cc3)[nH]2)cc1 | 20 µM [falling, partial curve]
49 | C=C(C)Cn1c(SCC(=O)Nc2ccccc2C)nc2sc3c(c2c1=O)CCCC3 | 12.6 µM [falling, partial curve]
50 | Cc1ccc(NC(=O)c2cc(-c3ccco3)on2)cc1 | 2.51 µM [falling, full curve]
51 | CC(C)Cn1c(=O)c2ccccc2n2c(CCC(=O)N3CCN(c4cccc(Cl)c4)CC3)nnc12 | 20 µM [falling, partial curve]
52 | COCCCN(Cc1ccco1)C(=O)c1cc2c(s1)-c1ccccc1OC2 | 20 µM [falling, partial curve]
53 | O=C(COc1ccccc1)Nc1sc2c(c1C(=O)Nc1ccccc1Cl)CCCCC2 | 7.94 µM [falling, partial curve]
54 | CCN(Cc1nc(-c2cccc(C)c2)no1)S(=O)(=O)c1ccc(C)cc1 | 31.6 µM [falling, single point]
55 | Cc1ccccc1-c1noc(-c2ccc(N3CCN(c4ccccc4)CC3)c([N+](=O)[O-])c2)n1 | 1.58 µM [rising, partial curve]
56 | CC(=O)OCc1cc(=O)n2nc(C3CCCCC3)sc2n1 | 12.6 µM [falling, partial curve]
57 | CCOc1ccc(NC(=O)CCN2CCN(S(=O)(=O)c3cc(Cl)ccc3OC)CC2)cc1 | 12.6 µM [falling, partial curve]
58 | Cc1c(C(=O)NC(C)c2ccccc2)sc2ncnc(N(C)C3CCCCC3)c12 (stereo unspecified) | 25.1 µM [falling, partial curve]
59 | O=S(=O)(Nc1ccc(-c2ccc(N3CCCCC3)nn2)cc1)c1ccc(OC(F)(F)F)cc1 | 12.6 µM [falling, partial curve]
60 | Cc1nn(-c2ccc(N3CCCCC3)nn2)c(C)c1CCC(=O)NCc1ccc(F)cc1 | 6.31 µM [falling, partial curve, poor fit]
61 | FC(F)(F)c1cccc(-n2cc(-c3ccccc3)c3c(N4CCCCC4)ncnc32)c1 | 10 µM [falling, partial curve, poor fit]
